Data reported in doi:10.1101/2021.04.21.440662.
These are yes or no findings as the source states them, for the method shown. Some binding calls cover weakened binding; strength is not graded here. Sequences can lack the tags named with a protein.

The chains behind the UniProt entries cited, without tags or fusion partners. Where a name states a change or a piece, a line headed by the entry shows the natural chain unless it says otherwise.
UniProt P0AEN4, whole entry, looked up, stated change not applied: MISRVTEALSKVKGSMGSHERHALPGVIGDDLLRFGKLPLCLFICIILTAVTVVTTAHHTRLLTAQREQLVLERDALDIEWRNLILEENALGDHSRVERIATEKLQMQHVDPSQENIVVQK

Molecular target: T1, His-FtsB (E. coli) (UniProt P0A6S5)
T1 sequence: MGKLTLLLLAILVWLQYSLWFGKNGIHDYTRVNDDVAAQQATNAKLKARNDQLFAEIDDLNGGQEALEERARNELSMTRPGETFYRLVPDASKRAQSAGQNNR
Assay: co-purification

- binding: binds
B1: Strep-FtsL_(35-121)-C41A-C45A (domain or fragment, UniProt P0AEN4 35-121)
chain: FGKLPLALFIAIILTAVTVVTTAHHTRLLTAQREQLVLERDALDIEWRNLILEENALGDHSRVERIATEKLQMQHVDPSQENIVVQK
